Reference: PubChem BioAssay AID2685 (National Center for Advancing Translational Sciences (NCATS), 2010)
The other results are listed elsewhere or left out. Further columns of the screen follow, without active or inactive calls. Compounds called inactive in the main read-out are mostly missing here. Potencies come from curve fits of mixed quality, noted in brackets.

Test: qHTS Assay for Lipid Storage Modulators in Drosophila S3 Cells;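 on cell number change: cells counted by Cell Tracker Red CMTPX staining in the red channel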
Conditions: BODIPY lipid droplet fluorescence, 18-24 h; for cell number change: measured here: cell count max response, cells fed with added oleic acid
In short: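 Drosophila S3 cells loaded with oleic acid (400 uM, as added) and compounds at several concentrations; lipid droplets imaged by 488-nm laser-scanning cytometry, 500–530 nm intensity and object ratio to cell channel. Percent activity normalized to 20 uM Triacsin C.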

[1] = measured here: cell number channel AC50, cells fed with added oleic acid
[2] = measured here: lipid fluorescence (Fed channel) AC50, cells fed with added oleic acid

Structure (SMILES)	cell number change [%]	AC50 [1]	AC50 [2]
CCOc1ccc(NC(=O)c2ccco2)c([N+](=O)[O-])c1	36.2	0.651 µM [rising, single point]	29.1 µM [rising, single point]
CC(=O)Nc1ccc(N2CCCC2)cc1	21		1.64 µM [falling, partial curve, poor fit]
COC(=O)c1sccc1NS(=O)(=O)c1ccccc1	14.7		9.2 µM [rising, partial curve, poor fit]
COCCn1c(C23CC4CC(CC(C4)C2)C3)n[nH]c1=S			0.58 µM [rising, single point]
O=C(CN1C(=O)c2ccccc2C1=O)N1CCN(c2ccccn2)CC1	7.37		6.51 µM [falling, single point]
CC(C)(C)C(=O)Nc1sc2c(c1C#N)CCC2	1.23	0.103 µM [falling, full curve, poor fit]	0.092 µM [falling, partial curve, poor fit]
CCN1CCN(CCCNC(=O)c2ccc3c(Cl)c4c(nc3c2)CCCC4)CC1	76.1	29.1 µM [rising, single point]	
CSc1nnc2ccc(-c3cccs3)nn12	32.1		
CC(NC(=O)Cc1ccccc1[N+](=O)[O-])c1ccccc1 (centres undefined)	-5.58		16.4 µM [falling, single point]
Cc1cc(C(=O)Nc2cccc(/C=C/C(=O)O)c2)c(C)o1	5.31		
Cc1ccc(C(=O)O/N=C(\c2ccccc2)c2cccnc2)cc1	171	13 µM [rising, partial curve]	20.6 µM [rising, partial curve]
O=S(=O)(Cc1ccc(Cl)cc1)N1CCCCCC1	7.04		0.092 µM [rising, full curve, poor fit]
Cc1ccc(C(=O)N2CCN(c3ccccc3)CC2)cc1C	3.24		0.00651 µM [falling, full curve, poor fit]
COc1cccc(/C=C2\SC(=O)N(CC(=O)NC3C=CS(=O)(=O)C3)C2=O)c1 (centres undefined)		0.82 µM [rising, full curve, poor fit]	
O=C(NCc1ccccc1)c1nncc(-c2ccccc2)n1	-9.94		0.00731 µM [rising, full curve, poor fit]
Cn1c(NC(=O)c2ccccc2)cc(=O)n(C)c1=O	23.3		
Cn1ncc([N+](=O)[O-])c1C(=O)Nc1ccc(-c2nc3ccccc3[nH]2)cc1	12.9	0.82 µM [rising, partial curve]	
O=C(/C=C/c1cccs1)c1ccc(N2CCOCC2)cc1	31.2		
Cc1ccc(-c2nn3c(C)nnc3s2)cc1NC(=O)c1ccc(Br)o1			0.0058 µM [rising, full curve, poor fit]
C=CCn1c(=O)/c(=C/c2ccc(C)o2)s/c1=C(/C#N)C(=O)c1ccccc1	-20.4		
O=C(NCCc1ccccc1)c1noc2c1CCCCC2	6.31		
CC(=O)c1cccc(S(=O)(=O)NCCC(=O)O)c1	-34.3	5.17 µM [falling, single point]	4.11 µM [falling, single point]

Structure (SMILES)	cell number change [%]	AC50 [1]	AC50 [2]
CC(=O)c1ccc(NC(=S)N(Cc2ccccc2)C(C)C2CC2)cc1 (centres undefined)	-22.7		
COc1ccc(OCCCC(=O)N2CCN(S(=O)(=O)c3cccc(F)c3)CC2)cc1	65.5	29.1 µM [rising, single point]	
CCOC(=O)/C=C1\NC(=O)CS1	7.4		6.51 µM [falling, single point]
COc1ccc2c(CC(=O)OCC(=O)Nc3ccccc3[N+](=O)[O-])coc2c1		0.0116 µM [falling, full curve, poor fit]	6.51 µM [rising, single point]
COc1ccc(-c2nc(CS(=O)CC(=O)NC3CCC(C)CC3)c(C)o2)cc1OC (centres undefined)	-6.08		
CC1CCC(NC(=O)c2cc3c(s2)CCCC3)CC1 (centres undefined)	92	20.6 µM [rising, partial curve]	
CN(CCCNC(=O)c1cccn2c(=O)c3ccccc3nc12)Cc1ccccc1	5.29	0.058 µM [rising, full curve, poor fit]	0.092 µM [rising, full curve]
O=c1[nH]c(CN2CCN(Cc3ccc4c(c3)OCO4)CC2)nc2sc3c(c12)CCC3	-1.72		3.26 µM [falling, single point]
CC1S/C(=C(\C#N)C(N)=O)N(c2ccc(F)cc2)C1=O (centres undefined)	-1.09		0.0517 µM [falling, full curve, poor fit]
N#CCCC(CCC#N)C1=NCCc2ccccc21	-12.6	0.0058 µM [falling, full curve, poor fit]	0.103 µM [falling, full curve, poor fit]
CC(C)C(C)NC(=O)CN1C(=O)NC2(CCc3ccccc32)C1=O (centres undefined)	35.7		
COCc1cc(C)nc(N/N=C/c2ccc(-c3ccc(C(=O)O)c(Cl)c3)o2)c1C#N	-25.9		25.9 µM [falling, partial curve]
CCOc1ccc2nc(NC(=O)CCC(=O)c3cccs3)sc2c1	18.3		
COc1ccccc1CNC(=O)C1(NC(=O)Nc2ccc(C)cc2)CCCCC1	-13		0.103 µM [falling, full curve]
CCc1ccc(CN2CCC(C(=O)Nc3ccc(-n4nc(C)cc4C)cc3)CC2)o1			18.4 µM [rising, partial curve]
CCCC(c1nnnn1CS(=O)(=O)c1ccc(C)cc1)N1CCN(CC)CC1 (centres undefined)	9.55		
O=C1C2C3C=CC(C4CC34)C2C(=O)N1/N=C/c1cccs1 (centres undefined)	2.09		1.46 µM [falling, partial curve]
N#Cc1c(SCC(=O)Nc2cccc(C(F)(F)F)c2)sc2c(O)cc(=O)[nH]c12	1.35		29.1 µM [rising, single point]
CCOC(=O)N1CCN(S(=O)(=O)c2ccc(C(=O)NNc3nc4ccc(Cl)cc4s3)cc2)CC1			32.6 µM [falling, single point]
O=C(N/N=C/c1cccnc1)c1ccc(CN2c3cccc4cccc(c34)S2(=O)=O)cc1	7.21	2.31 µM [rising, partial curve]	2.91 µM [rising, partial curve]
COc1cccc(CNS(=O)(=O)c2cc(CN3C(=O)c4cccnc4C3=O)ccc2OC)c1	17.9		23.1 µM [falling, single point]
Cn1c(=O)c2c(-c3ccccc3)n(-n3cnnc3)cc2n(C)c1=O	-24.6		29.1 µM [falling, single point]

Random excerpt: 3 compounds from above.
Structure (SMILES)	cell number change [%]	AC50 [1]	AC50 [2]
CCCC(c1nnnn1CS(=O)(=O)c1ccc(C)cc1)N1CCN(CC)CC1 (centres undefined)	9.55		
CC(=O)c1ccc(NC(=S)N(Cc2ccccc2)C(C)C2CC2)cc1 (centres undefined)	-22.7		
CCOc1ccc2nc(NC(=O)CCC(=O)c3cccs3)sc2c1	18.3		

Carrying on.

Structure (SMILES)	cell number change [%]	AC50 [1]	AC50 [2]
O=C1NC(=O)/C(=C\c2ccc(O)cc2O)S1	-17.4		6.51 µM [falling, single point]
O=S(=O)(c1ccc(SCCO)nc1)N1CCCC1	-10.8		0.116 µM [falling, full curve, poor fit]
O=C1c2cccc3cccc(c23)C(=O)N1c1nncs1	8.02		3.26 µM [falling, single point]
CC1(c2cccc(Br)c2)NC(=O)N(CC(=O)Nc2ccc(S(N)(=O)=O)cc2)C1=O (centres undefined)	9.01		0.651 µM [rising, full curve]
CC(C)(C)OCC(O)CN1CCN(C(=O)c2ccccc2)CC1 (centres undefined)	-36.9	32.6 µM [falling, single point]	
CN1Cc2cccc3c2C(Cc2ccccc2S3)C1 (centres undefined)	87	29.1 µM [rising, single point]	
CC(C)N1C2OC(C3OC4C(O3)N(C(C)C)S(=O)(=O)N4C(C)C)OC2N(C(C)C)S1(=O)=O (centres undefined)	-19.2	0.0326 µM [falling, full curve, poor fit]	
O=C(COC(=O)c1cccc(S(=O)(=O)N2CCCC2)c1)Nc1ccccc1C(F)(F)F	-22.5		
C/C(=C\c1ccc2c(c1)OCO2)C1Nc2cccc3cccc(c23)N1	18.8		
NC1=NC(c2cccc(O)c2)n2c(nc3ccccc32)N1 (centres undefined)	5.57		
Cc1cc(NC(=O)/C=C/c2ccccc2Cl)n(-c2nc3ccccc3[nH]2)n1	-13.7		29.1 µM [falling, single point]
O=C(CP(=O)(c1ccccc1)c1ccccc1)N1CCCCC1	-154		29.1 µM [falling, single point]
CC[C@H](C)C(N)c1cn([C@@H](CC(N)=O)C(=O)N2CCNCC2)nn1 (some centres undefined)	-22.2		20.6 µM [rising, single point]
CN(CCOc1ccc(-c2ccn(S(=O)(=O)c3ccc(Cl)cc3)n2)cc1)c1ccccn1	13		13 µM [rising, partial curve]
Cn1nccc1C(=O)N1CCOCC1			0.0058 µM [rising, full curve, poor fit]
Cc1ccc(-n2ncc3c(=O)n(Cc4ccccn4)cnc32)cc1C	5.29		
O=c1c(/C=N/OCc2ccc(Cl)cc2Cl)c[nH]n1-c1cccc(Cl)n1	15		
O=C(O)C(CCCCN1C(=O)c2ccccc2C1=O)N1C(=O)c2ccccc2C1=O (centres undefined)			0.00517 µM [falling, full curve, poor fit]
COc1ccc(OC)c(S(=O)(=O)N2CCC(C(=O)Nc3cccc(C)c3)CC2)c1	86.8	11.6 µM [rising, partial curve]	5.8 µM [rising, single point]
COc1ccc(CCNC(=O)COC(=O)c2cnccn2)cc1	37.9	25.9 µM [rising, single point]	29.1 µM [rising, single point]
